Consider one substance from publication doi:10.1101/2023.09.03.556088, “Protein coopted from a phage restriction system dictates orthogonal cell division plane selection in Staphylococcus aureus” (bioRxiv, 2023).

By UniProt entry, the sequences of proteins in these tests, tags left out. Where a name states a change or a piece, a line headed by the entry shows the natural chain unless it says otherwise.
UniProt P0A031: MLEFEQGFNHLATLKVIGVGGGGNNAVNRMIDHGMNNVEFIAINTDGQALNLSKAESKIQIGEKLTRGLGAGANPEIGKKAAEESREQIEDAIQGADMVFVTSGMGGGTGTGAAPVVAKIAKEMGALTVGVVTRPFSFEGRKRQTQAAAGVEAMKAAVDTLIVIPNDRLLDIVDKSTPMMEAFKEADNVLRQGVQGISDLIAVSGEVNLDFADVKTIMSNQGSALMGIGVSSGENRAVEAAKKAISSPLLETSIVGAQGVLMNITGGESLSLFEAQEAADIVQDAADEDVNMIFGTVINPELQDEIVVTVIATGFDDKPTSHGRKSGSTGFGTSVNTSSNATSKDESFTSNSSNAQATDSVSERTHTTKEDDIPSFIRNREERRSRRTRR
UniProt A0A0H2XHA0: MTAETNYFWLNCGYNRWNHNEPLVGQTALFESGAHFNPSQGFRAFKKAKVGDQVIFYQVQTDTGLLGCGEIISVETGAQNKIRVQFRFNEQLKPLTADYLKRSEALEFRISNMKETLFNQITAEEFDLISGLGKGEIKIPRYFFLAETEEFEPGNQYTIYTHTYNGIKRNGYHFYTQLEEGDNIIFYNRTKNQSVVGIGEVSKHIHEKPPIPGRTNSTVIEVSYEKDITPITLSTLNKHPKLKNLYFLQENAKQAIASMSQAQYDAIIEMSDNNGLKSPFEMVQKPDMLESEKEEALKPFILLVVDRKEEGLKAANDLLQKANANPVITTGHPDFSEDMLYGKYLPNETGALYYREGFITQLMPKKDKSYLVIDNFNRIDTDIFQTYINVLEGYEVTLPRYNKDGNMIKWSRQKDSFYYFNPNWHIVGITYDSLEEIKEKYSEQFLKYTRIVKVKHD

These are yes or no findings as the source states them, for the method shown. For part of these data: Binding calls can cover weak binding; strength is not graded here.

The target in test [1] is FtsZ (purified recombinant untagged S. aureus FtsZ) (S. aureus) (UniProt P0A031). The test can be described thus: co-sedimentation; with 2 mM GMPCPP; 30 μM FtsZ with or without PcdA (5 μM in the legend, 10 μM in the methods); 20 mM HEPES pH 7.5, 140 mM KCl, 5 mM MgCl2; 10 min at 37 °C, then 30 min at 129,000 × g; supernatant and pellet on SDS-PAGE, Coomassie; both purified.

For test [2] the target is unchanged. The experiment in a line: filter retention assay; with 2 mM ATP, no GTP; 30 μM FtsZ and PcdA (5 μM in the legend, 10 μM in the methods) in reaction buffer, 15 min at room temperature; 100 kDa filter, 21,000 × g 10 min; flowthrough and retained fraction on SDS-PAGE, Coomassie; both purified.
Test [3] shares this target. The experiment in a line: filter retention assay; without ATP, no GTP; 30 μM FtsZ and PcdA (5 μM in the legend, 10 μM in the methods) in reaction buffer, 15 min at room temperature; 100 kDa filter, 21,000 × g 10 min; flowthrough and retained fraction on SDS-PAGE, Coomassie; both purified.

Turning to “PcdA (purified untagged recombinant) (from UniProt A0A0H2XHA0)”, the binding entry in test [1] is reported as “binds”; in test [2], “binds”; in test [3] it was “no binding (only without ATP)”.
